Assay results reported in article PMC13175477.
These are yes or no findings as the source states them, for the method shown. In cells and extracts the contact can be indirect. Some results given as binding are weak or reduced against the parent protein; the word gives no strength. For part of these data: Tags and fused reporters may be left off the sequences shown.

Sequences of proteins named here, by UniProt entry; tags and fusion partners are left off. A change or cut given only in a name is not applied to a line headed by its entry. A line that says so, or that is headed by a name, gives the form on record, which may keep a tag or linker.
UniProt Q7Z2W4: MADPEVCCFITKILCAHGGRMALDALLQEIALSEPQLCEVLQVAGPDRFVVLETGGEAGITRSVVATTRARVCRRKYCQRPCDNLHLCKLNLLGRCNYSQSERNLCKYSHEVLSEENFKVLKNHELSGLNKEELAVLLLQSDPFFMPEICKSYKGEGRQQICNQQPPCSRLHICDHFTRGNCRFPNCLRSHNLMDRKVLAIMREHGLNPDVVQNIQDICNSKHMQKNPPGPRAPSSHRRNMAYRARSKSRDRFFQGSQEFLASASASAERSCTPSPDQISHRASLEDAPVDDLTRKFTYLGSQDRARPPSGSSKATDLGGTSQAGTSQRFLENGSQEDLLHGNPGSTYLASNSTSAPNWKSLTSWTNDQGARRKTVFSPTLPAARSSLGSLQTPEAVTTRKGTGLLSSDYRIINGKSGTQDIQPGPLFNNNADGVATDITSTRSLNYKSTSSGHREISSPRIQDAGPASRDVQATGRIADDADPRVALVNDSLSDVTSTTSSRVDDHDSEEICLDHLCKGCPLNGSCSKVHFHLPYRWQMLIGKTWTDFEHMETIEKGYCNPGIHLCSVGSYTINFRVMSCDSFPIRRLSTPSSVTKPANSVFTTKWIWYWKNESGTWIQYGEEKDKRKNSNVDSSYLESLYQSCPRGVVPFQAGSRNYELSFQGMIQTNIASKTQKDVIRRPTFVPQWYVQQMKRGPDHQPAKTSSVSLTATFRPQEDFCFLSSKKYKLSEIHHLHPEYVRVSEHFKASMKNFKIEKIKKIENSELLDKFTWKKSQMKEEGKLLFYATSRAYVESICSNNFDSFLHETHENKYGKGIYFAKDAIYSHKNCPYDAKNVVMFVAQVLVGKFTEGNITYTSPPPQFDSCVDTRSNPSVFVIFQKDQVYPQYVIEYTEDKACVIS
ZAP-S wildtype (Q7Z2W4, form named): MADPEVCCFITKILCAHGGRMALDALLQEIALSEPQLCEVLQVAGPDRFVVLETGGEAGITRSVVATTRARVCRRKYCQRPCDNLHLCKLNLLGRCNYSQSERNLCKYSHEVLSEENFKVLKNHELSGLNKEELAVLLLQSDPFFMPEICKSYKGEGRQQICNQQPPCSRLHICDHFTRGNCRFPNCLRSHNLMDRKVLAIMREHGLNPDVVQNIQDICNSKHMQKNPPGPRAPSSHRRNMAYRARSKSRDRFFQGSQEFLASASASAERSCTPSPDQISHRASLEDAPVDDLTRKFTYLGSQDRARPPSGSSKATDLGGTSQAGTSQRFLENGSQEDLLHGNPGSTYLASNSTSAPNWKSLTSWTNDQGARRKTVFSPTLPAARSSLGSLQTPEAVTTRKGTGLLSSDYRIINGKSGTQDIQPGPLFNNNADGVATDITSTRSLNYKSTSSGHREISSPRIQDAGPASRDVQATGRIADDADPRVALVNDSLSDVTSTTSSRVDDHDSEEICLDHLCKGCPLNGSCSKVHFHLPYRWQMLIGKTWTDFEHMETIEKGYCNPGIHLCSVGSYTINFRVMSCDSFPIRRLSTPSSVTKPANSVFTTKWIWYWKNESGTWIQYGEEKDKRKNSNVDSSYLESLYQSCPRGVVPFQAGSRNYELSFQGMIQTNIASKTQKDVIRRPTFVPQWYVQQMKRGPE

Assays:
ZAP-L-HA (human) = ZAP-L-HA (human) (UniProt Q7Z2W4); experiment: co-IP; HEK293T transfected with ZAP-L-HA, GFP-HA and OASL; ZAP- or GFP-complexes purified from lysates with an anti-HA antibody; western blot
ZAP-S wildtype (human) = ZAP-S wildtype (human) (UniProt Q7Z2W4); experiment: co-IP; HEK293T ZAP-/- TRIM25-/- co-transfected, 48 h; ZAP precipitated from lysates (ZAP-L-FLAG with anti-FLAG; antibody for ZAP-S not stated); buffers as in the co-IP methods; western blot
ZAP-L-FLAG (human) [1] = molecular target: ZAP-L-FLAG (human) (UniProt Q7Z2W4); experiment: co-IP; HEK293T ZAP-/- TRIM25-/- KHNYN-/- N4BP1-/- co-transfected; ZAP-L complexes isolated from lysates; western blot; in Fig 5g 500ng of ZAP-L and TRIM25 plasmids with increasing amounts of KHNYN plasmid
[2] = molecular target: T1, mouse RIG-I (mouse (Mus musculus)) (UniProt Q6Q899); experiment: co-IP; HEK293T co-transfected, 48 h; lysis in 10mM HEPES pH7.5, 30mM KCl, 40uM EDTA, 0.1% Igepal CA-630, 1mM DTT; FLAG-tagged sensor precipitated with anti-FLAG on Protein G Dynabeads, 2h at 4C; final washes with 300mM KCl, 0.5% Igepal; western blot
T1 sequence: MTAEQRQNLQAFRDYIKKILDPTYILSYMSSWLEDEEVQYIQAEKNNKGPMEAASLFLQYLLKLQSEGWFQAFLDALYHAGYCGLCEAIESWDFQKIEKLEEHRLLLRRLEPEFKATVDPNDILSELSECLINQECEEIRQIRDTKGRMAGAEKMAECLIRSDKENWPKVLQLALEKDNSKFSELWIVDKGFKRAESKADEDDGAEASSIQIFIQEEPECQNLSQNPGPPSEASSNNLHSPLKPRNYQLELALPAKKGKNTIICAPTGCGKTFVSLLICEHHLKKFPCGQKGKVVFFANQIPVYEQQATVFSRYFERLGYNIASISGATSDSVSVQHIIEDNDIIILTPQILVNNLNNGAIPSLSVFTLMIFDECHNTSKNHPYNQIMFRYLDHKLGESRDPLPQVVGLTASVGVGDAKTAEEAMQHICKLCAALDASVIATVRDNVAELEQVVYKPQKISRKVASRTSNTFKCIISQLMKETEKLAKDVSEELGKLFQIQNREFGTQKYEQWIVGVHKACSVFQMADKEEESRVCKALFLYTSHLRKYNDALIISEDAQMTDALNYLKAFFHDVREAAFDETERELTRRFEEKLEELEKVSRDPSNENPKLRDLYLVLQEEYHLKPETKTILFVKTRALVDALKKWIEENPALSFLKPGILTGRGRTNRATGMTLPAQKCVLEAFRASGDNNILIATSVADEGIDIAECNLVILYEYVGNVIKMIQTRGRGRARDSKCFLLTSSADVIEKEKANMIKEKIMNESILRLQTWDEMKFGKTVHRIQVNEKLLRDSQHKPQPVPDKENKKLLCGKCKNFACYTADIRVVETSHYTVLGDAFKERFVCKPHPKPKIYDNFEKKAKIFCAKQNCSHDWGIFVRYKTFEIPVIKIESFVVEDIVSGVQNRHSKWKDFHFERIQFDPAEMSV

ZAP-L-FLAG (human) [3] = molecular target: ZAP-L-FLAG (human) (UniProt Q7Z2W4); experiment: co-IP; HEK293T ZAP-/- TRIM25-/- co-transfected, 48 h; ZAP precipitated from lysates (ZAP-L-FLAG with anti-FLAG; antibody for ZAP-S not stated); buffers as in the co-IP methods; western blot
OAS2-FLAG (human) = molecular target: T2, OAS2-FLAG (human) (UniProt P29728); experiment: co-IP; HEK293T co-transfected, 48 h; lysis in 10mM HEPES pH7.5, 30mM KCl, 40uM EDTA, 0.1% Igepal CA-630, 1mM DTT; FLAG-tagged sensor precipitated with anti-FLAG on Protein G Dynabeads, 2h at 4C; final washes with 300mM KCl, 0.5% Igepal; western blot
T2 sequence: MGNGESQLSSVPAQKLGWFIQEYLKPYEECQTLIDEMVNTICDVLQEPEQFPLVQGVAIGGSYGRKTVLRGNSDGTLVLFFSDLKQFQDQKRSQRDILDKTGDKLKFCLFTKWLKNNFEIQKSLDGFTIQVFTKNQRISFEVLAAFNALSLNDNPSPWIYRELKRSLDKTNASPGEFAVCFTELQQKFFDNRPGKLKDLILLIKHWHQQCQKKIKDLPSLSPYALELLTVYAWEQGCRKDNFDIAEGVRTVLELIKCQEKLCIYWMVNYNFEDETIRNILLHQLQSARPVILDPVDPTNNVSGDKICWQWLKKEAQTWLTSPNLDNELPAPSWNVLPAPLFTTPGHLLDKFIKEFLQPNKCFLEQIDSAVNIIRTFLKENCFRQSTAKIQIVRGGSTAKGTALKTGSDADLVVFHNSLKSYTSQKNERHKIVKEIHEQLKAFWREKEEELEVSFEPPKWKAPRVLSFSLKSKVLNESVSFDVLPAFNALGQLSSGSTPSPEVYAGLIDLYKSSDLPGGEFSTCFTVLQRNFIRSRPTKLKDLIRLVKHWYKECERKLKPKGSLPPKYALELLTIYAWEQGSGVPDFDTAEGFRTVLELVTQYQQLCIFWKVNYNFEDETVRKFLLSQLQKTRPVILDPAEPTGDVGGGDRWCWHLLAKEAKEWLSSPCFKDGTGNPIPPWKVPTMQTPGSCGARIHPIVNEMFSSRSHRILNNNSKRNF

ZAP-L-FLAG (human) [4] = molecular target: ZAP-L-FLAG (human) (UniProt Q7Z2W4); experiment: as above
RIG-I-FLAG (human) = molecular target: T3, RIG-I-FLAG (human) (UniProt O95786); experiment: as above
T3 sequence: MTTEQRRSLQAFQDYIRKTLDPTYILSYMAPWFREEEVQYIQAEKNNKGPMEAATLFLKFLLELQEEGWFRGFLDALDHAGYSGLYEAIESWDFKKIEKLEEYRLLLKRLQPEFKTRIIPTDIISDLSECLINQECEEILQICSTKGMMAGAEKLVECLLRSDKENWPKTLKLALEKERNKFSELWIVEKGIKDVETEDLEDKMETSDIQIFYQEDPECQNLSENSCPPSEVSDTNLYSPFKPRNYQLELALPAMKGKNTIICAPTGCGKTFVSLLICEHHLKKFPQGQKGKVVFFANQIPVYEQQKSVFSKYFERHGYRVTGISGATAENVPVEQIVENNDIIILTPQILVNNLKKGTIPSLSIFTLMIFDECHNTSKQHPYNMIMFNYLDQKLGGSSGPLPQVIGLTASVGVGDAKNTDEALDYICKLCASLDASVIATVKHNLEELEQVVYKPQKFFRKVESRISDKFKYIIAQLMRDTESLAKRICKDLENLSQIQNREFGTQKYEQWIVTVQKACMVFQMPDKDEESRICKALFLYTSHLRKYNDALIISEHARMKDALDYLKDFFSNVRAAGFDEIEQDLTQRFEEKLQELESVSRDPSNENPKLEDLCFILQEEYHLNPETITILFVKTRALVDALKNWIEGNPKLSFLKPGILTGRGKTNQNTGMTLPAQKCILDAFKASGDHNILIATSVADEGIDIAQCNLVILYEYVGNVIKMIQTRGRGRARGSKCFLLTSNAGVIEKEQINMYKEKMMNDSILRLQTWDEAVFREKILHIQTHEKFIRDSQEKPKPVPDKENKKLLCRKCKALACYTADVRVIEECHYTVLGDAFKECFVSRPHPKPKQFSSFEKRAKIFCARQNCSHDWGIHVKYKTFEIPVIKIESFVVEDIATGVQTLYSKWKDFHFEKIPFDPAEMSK

[5] = molecular target: T4, human Riplet (in-cell crosslinking) (human), Q8IUD6; experiment: cross-linking; in-cell: 0.00625% glutaraldehyde in serum-free DMEM, 15min, room temperature, quenched with 50mM Tris-HCl pH 8; lysates on Tris-Acetate 3-8% gels; western blot; details: remark: other sources report otherwise
T4 chain: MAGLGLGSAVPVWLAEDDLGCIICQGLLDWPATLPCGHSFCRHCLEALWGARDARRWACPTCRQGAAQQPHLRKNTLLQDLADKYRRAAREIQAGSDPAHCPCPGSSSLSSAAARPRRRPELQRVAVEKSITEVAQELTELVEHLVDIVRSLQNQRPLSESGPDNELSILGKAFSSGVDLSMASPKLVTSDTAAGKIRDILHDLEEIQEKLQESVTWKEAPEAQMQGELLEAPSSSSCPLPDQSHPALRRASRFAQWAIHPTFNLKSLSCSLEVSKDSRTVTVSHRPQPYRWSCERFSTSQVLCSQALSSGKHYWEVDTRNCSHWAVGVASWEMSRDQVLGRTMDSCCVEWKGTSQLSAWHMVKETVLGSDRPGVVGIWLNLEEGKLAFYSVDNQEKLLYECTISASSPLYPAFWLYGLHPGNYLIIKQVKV

B1: OASL (protein, UniProt Q15646 1-514)
chain: MALMQELYSTPASRLDSFVAQWLQPHREWKEEVLDAVRTVEEFLRQEHFQGKRGLDQDVRVLKVVKVGSFGNGTVLRSTREVELVAFLSCFHSFQEAAKHHKDVLRLIWKTMWQSQDLLDLGLEDLRMEQRVPDALVFTIQTRGTAEPITVTIVPAYRALGPSLPNSQPPPEVYVSLIKACGGPGNFCPSFSELQRNFVKHRPTKLKSLLRLVKHWYQQYVKARSPRANLPPLYALELLTIYAWEMGTEEDENFMLDEGFTTVMDLLLEYEVICIYWTKYYTLHNAIIEDCVRKQLKKERPIILDPADPTLNVAEGYRWDIVAQRASQCLKQDCCYDNRENPISSWNVKRARDIHLTVEQRGYPDFNLIVNPYEPIRKVKEKIRRTRGYSGLQRLSFQVPGSERQLLSSRCSLAKYGIFSHTHIYLLETIPSEIQVFVKNPDGGSYAYAINPNSFILGLKQQIEDQQGLPKKQQQLEFQGQVLQDWLGLGIYGIQDSDTLILSKKKGEALFPAS
- binding (ZAP-L-HA (human)): binds
- binding (ZAP-S wildtype (human)): binds
- binding (ZAP-L-FLAG (human) [1]): binds

B2: mouse Riplet (enzyme, UniProt Q9CWS1 1-417)
chain: MAAVCSGNAVPVWLSEDDLSCIICQGLLDQPTTLPCGHSFCLRCLHDLWVSKRGAVDGCPWACPICRKGPLTKPKLHKNPLLQDLVDKYLQAAREVEAGSEPEPAPAPRSAPQVTVQKSTTNVIQELTDMVRQLVDDVKSLQTQRPNLGSGQDNAQGTPPTDSSSEGEHSLDSPKLVTFSISQKKIQEILHNLEEIQEKLQGSVPGRAPPRERVQEMTSSLCLLPDQRRPAPRKASHLSLWAISPTFDLRTLSYNLEVSNNSRRVTVSRGDLHTYHWSPQRFSISQVFCSQALSSGQKYWEVDTRNCSHWAIGVASWGMKRDGMLGRTMDSWCIEWRGPGQFSAWAKMKKTDLQSDLPEVVGVWLDLESGELAFYAVADHERLLYECEVSSSSPLHPAFWLYGLSPGNYLEIKQLNT
- binding [2]: binds

B3: Riplet-HA (enzyme, UniProt Q8IUD6 1-432)
chain: T4 chain
- binding (ZAP-L-FLAG (human) [3]): no binding
- binding (OAS2-FLAG (human)): binds
- binding (ZAP-L-FLAG (human) [4]): no binding
- binding (RIG-I-FLAG (human)): binds

B4: human Riplet (in-cell crosslinking), Q8IUD6 1-432 (enzyme)
chain: T4 chain
- binding [5]: no binding
